In publication PMC11494200:
Results are given in words; binding and its absence hold for the method and conditions named. In cells and extracts the contact can be indirect. Some entries that bind do so weakly or less than the wild type. Tags and fused reporters may be left off the sequences shown.

Target: T1, ABCG2-FLAG (ATP Binding Cassette Subfamily G Member 2, plasmid ABCG2-3FLAG) (UniProt Q9UNQ0)
T1 sequence: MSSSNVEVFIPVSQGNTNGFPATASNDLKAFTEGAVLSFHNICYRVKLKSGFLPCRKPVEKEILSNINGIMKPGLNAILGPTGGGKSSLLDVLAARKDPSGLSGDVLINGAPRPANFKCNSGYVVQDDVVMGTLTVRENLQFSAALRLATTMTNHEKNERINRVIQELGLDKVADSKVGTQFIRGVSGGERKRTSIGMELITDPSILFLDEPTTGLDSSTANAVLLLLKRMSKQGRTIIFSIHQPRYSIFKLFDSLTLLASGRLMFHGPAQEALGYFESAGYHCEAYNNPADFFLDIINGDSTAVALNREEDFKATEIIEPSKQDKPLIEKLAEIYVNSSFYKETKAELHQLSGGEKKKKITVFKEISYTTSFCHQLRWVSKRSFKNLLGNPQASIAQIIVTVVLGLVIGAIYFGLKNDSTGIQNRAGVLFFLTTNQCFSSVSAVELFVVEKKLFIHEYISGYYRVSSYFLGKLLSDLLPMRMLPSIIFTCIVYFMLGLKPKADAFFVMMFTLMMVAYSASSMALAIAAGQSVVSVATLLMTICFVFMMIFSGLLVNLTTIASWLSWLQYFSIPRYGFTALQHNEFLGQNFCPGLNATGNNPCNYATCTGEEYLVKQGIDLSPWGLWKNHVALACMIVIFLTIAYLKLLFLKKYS
Assay: co-IP; HEK293 lysate (1% TritonX-100, 10 mM HEPES pH 7.4, 142.5 mM KCl, 5 mM MgCl2, 1 mM EDTA, 10% glycerol); FLAG tag antibody and Protein G Sepharose beads overnight at 4 °C; immunoblot

B1: endogenous NUMB protein (HEK293) (protein, UniProt P49757 1-651)
chain: MNKLRQSFRRKKDVYVPEASRPHQWQTDEEGVRTGKCSFPVKYLGHVEVDESRGMHICEDAVKRLKAERKFFKGFFGKTGKKAVKAVLWVSADGLRVVDEKTKDLIVDQTIEKVSFCAPDRNFDRAFSYICRDGTTRRWICHCFMAVKDTGERLSHAVGCAFAACLERKQKREKECGVTATFDASRTTFTREGSFRVTTATEQAEREEIMKQMQDAKKAETDKIVVGSSVAPGNTAPSPSSPTSPTSDATTSLEMNNPHAIPRRHAPIEQLARQGSFRGFPALSQKMSPFKRQLSLRINELPSTMQRKTDFPIKNAVPEVEGEAESISSLCSQITNAFSTPEDPFSSAPMTKPVTVVAPQSPTFQANGTDSAFHVLAKPAHTALAPVAMPVRETNPWAHAPDAANKEIAATCSGTEWGQSSGAASPGLFQAGHRRTPSEADRWLEEVSKSVRAQQPQASAAPLQPVLQPPPPTAISQPASPFQGNAFLTSQPVPVGVVPALQPAFVPAQSYPVANGMPYPAPNVPVVGITPSQMVANVFGTAGHPQAAHPHQSPSLVRQQTFPHYEASSATTSPFFKPPAQHLNGSAAFNGVDDGRLASADRHTEVPTGTCPVDPFEAQWAALENKSKQRTNPSPTNPFSSDLQKTFEIEL
B1 was tested, and the binding was “binds”.
